Results are given in words; binding and its absence hold for the method and conditions named. Some results given as binding are weak or reduced against the parent protein; the word gives no strength.
Assays:
Settings in all cases: remark: other sources report otherwise
[1] = molecular target: T1, human small heat shock protein HspB8, wild type (human), Q9UJY1; assay: AUC; sedimentation velocity, 42,000 rpm, 20 C; 50 mM phosphate pH 6.8, 150 mM NaCl, 2 mM DTT; 0.4 mg/mL (HspB1, HspB8) or 0.8 mg/mL (HspB4, HspB5, HspB6); SEDFIT; both purified
T1 chain: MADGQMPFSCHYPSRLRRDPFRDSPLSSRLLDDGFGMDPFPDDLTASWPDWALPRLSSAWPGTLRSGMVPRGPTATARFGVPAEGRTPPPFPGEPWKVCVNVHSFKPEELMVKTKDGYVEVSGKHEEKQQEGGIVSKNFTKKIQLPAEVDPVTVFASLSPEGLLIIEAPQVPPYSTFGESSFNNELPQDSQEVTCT

[2] = molecular target: T1, human small heat shock protein HspB8, …; assay: cross-linking; disulfide formation by mild oxidation of SH groups: dialysis without reducing agent at 37 C, 2-24 h, 1.2 mg/mL, stopped with iodoacetamide; SDS-PAGE; data not presented; both purified
[3] = molecular target: T1, human small heat shock protein HspB8, …; assay: cross-linking; DSS 0-500 uM, 30 min at 37 C in PBS after reduction with DTT and desalting; SDS-PAGE; both purified

Measured: binding

B1: human small heat shock protein HspB8, wild type, Q9UJY1 1-196 (natural protein)
chain: MADGQMPFSCHYPSRLRRDPFRDSPLSSRLLDDGFGMDPFPDDLTASWPDWALPRLSSAWPGTLRSGMVPRGPTATARFGVPAEGRTPPPFPGEPWKVCVNVHSFKPEELMVKTKDGYVEVSGKHEEKQQEGGIVSKNFTKKIQLPAEVDPVTVFASLSPEGLLIIEAPQVPPYSTFGESSFNNELPQDSQEVTCT
binds: all assays above

— article PMC6073470 (International Journal of Molecular Sciences, 2018)
